Assay results

Source: PubChem BioAssay AID1053133 (Broad Institute, 2014).

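Plate-reader measure of the Venus reporter marking one vaccinia stage in infected cells (the cell line is not named here); read time unknown.
The test concentration is not given here.
Percent change in Venus reporter signal; lower (more negative) values mean stronger inhibition of that viral stage.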

Values are in %.
The controls that fix the scale are not given here.
Common to all entries: measured here: Venus reporter, other viral stage.
Part of the compounds only, not a random draw; the main read-out is not listed here.

O=C(N[C@@H]1C[C@@H]2O[C@@H](CO)CC[C@@H]2O[C@@H]1CCc1ccc(C#Cc2ccccc2)cc1)c1ccccn1 read activity change (Venus) -52%. With COc1cccc(C#Cc2ccc3c(c2)O[C@@H](CN(C)C(=O)c2ccccn2)[C@H](C)CN([C@@H](C)CO)S3(=O)=O)c1 the assay gave activity change (Venus) -27.01%. With O=C(C[C@@H]1CC[C@@H]2[C@H](COC[C@@H](O)CN2Cc2nccs2)O1)NCc1ccc(Oc2ccccc2)cc1 the assay gave activity change (Venus) -41.48%. For Cc1ccc(-c2ccc3c(c2)O[C@@H](CN(C)Cc2cccnc2)[C@@H](C)CN([C@@H](C)CO)S3(=O)=O)cc1 the result was activity change (Venus) -32.4%. O=C(C[C@H]1CC[C@@H]2[C@H](COC[C@H](O)CN2CCc2ccccc2)O1)NCc1ccc(Oc2ccccc2)cc1 gave activity change (Venus) -53.36%.

CC(C)C#Cc1ccc2c(c1)O[C@H](CN(C)Cc1ccccc1)[C@@H](C)CN([C@H](C)CO)S2(=O)=O gave activity change (Venus) -30.11%. With C[C@H]1CN([C@@H](C)CO)S(=O)(=O)c2ccc(/C=C/c3ccccc3)cc2O[C@@H]1CN(C)C(=O)c1ccncc1 the assay gave activity change (Venus) -31.57%. OC[C@@H]1[C@@H](c2ccccc2)C2(CN(Cc3ccc4c(c3)OCO4)C2)N1Cc1ccccc1 read activity change (Venus) -36.39%. Result for C[C@@H]1CCCCO[C@H](CN(C)C(=O)Nc2ccc(C(F)(F)F)cc2)[C@H](C)CN([C@H](C)CO)C(=O)c2cc(NS(C)(=O)=O)ccc2O1 was activity change (Venus) -33.05%. O=C(C1CCCC1)N1CC2(C1)[C@H](c1ccccc1)[C@H](CO)N2Cc1ccc(Cl)cc1 gave activity change (Venus) -39.02%.

C[C@H](CO)N1C[C@H](C)[C@H](CN(C)CC2CCCCC2)OCCCC[C@H](C)Oc2ccc(NC(=O)Nc3cccc4ccccc34)cc2C1=O read activity change (Venus) -31.83%. O=C(CC1CC1)N1CC(=O)N2[C@H](CO)[C@@H](c3ccc(C#Cc4ccc(F)cc4)cc3)[C@H]2C1 gave activity change (Venus) -22.96%. For CC(C)CC#Cc1ccc2c(c1)O[C@@H](CN(C)C(=O)Nc1ccccc1F)[C@@H](C)CN([C@@H](C)CO)S2(=O)=O the result was activity change (Venus) -69.73%. For O=S(=O)(c1ccc(-c2ccccc2)cc1)N1C[C@@H]2N[C@H](C1)C2c1ccc(-c2cncnc2)cc1 (some centres unmarked) the result was activity change (Venus) -66.06%. With C[C@@H]1CCCCO[C@@H](CN(C)S(=O)(=O)c2ccc(F)cc2)[C@H](C)CN([C@@H](C)CO)C(=O)c2cc(NS(=O)(=O)c3ccc(Cl)cc3)ccc2O1 the assay gave activity change (Venus) -40.84%.

For C[C@H]1CN([C@@H](C)CO)C(=O)Cc2cc(NC(=O)C3CCCCC3)ccc2O[C@@H]1CN(C)Cc1ccc(Oc2ccccc2)cc1 the result was activity change (Venus) -28.8%. For C[C@@H]1CN([C@@H](C)CO)C(=O)c2cc(C#Cc3ccccc3F)cnc2O[C@@H]1CN(C)S(=O)(=O)c1ccccc1F the result was activity change (Venus) -30.48%. For C[C@@H]1CN([C@@H](C)CO)C(=O)c2cc(NC(=O)NC3CCCCC3)ccc2O[C@@H]1CN(C)Cc1ccc(Oc2ccccc2)cc1 the result was activity change (Venus) -20.31%. C[C@H]1CN([C@@H](C)CO)S(=O)(=O)c2ccc(/C=C/c3ccccc3)cc2O[C@H]1CN(C)C gave activity change (Venus) -38.55%. With C[C@H](CO)N1C[C@H](C)[C@H](CN(C)S(=O)(=O)c2ccc(Cl)cc2)Oc2ccc(NC(=O)Nc3ccccc3)cc2CC1=O the assay gave activity change (Venus) -39.23%.

COc1ccc(CN(C)C[C@H]2Oc3c(NC(=O)Nc4ccc(C(F)(F)F)cc4)cccc3C(=O)N([C@H](C)CO)C[C@H]2C)cc1 gave activity change (Venus) -49.35%. Result for Cc1ccc(-c2ccc3c(c2)O[C@@H](CN(C)Cc2ccccc2)[C@@H](C)CN([C@@H](C)CO)S3(=O)=O)cc1 was activity change (Venus) -67.68%. Cc1noc(C)c1S(=O)(=O)Nc1ccc2c(c1)CC(=O)N([C@H](C)CO)C[C@@H](C)[C@@H](CN(C)Cc1ccc(-c3ccccc3)cc1)O2 read activity change (Venus) -29%. For C[C@@H]1CN([C@@H](C)CO)C(=O)Cc2cc(NC(=O)CCCCCC(=O)Nc3ccccc3N)ccc2O[C@@H]1CN(C)Cc1ccc(Oc2ccccc2)cc1 the result was activity change (Venus) -51.79%. C[C@H]1CCCCO[C@H](CN(C)Cc2ccc(C(F)(F)F)cc2)[C@@H](C)CN([C@@H](C)CO)C(=O)c2cc(NC(=O)CCCN(C)C)ccc2O1 read activity change (Venus) -81.35%.

For C[C@@H]1CCCCO[C@H](CN(C)S(=O)(=O)c2ccc(Cl)cc2)[C@H](C)CN([C@H](C)CO)C(=O)c2cc(NC(=O)CCC(F)(F)F)ccc2O1 the result was activity change (Venus) -38.59%. With CNC[C@H]1Oc2cc(C#Cc3cccc(F)c3)ccc2S(=O)(=O)N([C@@H](C)CO)C[C@@H]1C the assay gave activity change (Venus) -26.31%. For COc1ccccc1NC(=O)N1CCCCN2[C@@H](CO)[C@@H](c3ccc(-c4ccc(C)cc4)cc3)[C@@H]2C1 the result was activity change (Venus) -78.44%. For N#Cc1cccc(-c2ccc(C3[C@@H]4CN(C(=O)C5CCCCC5)C[C@H]3N4)cc2)c1 (some centres unmarked) the result was activity change (Venus) -54.57%. With Cc1noc(C)c1S(=O)(=O)Nc1ccc2c(c1)C(=O)N([C@H](C)CO)C[C@@H](C)[C@@H](CN(C)CC1CCCCC1)OCCCC[C@H](C)O2 the assay gave activity change (Venus) -55.46%.

Some entries from above, unchanged:

Result for C[C@H]1CCCCO[C@H](CN(C)Cc2ccc(C(F)(F)F)cc2)[C@@H](C)CN([C@@H](C)CO)C(=O)c2cc(NC(=O)CCCN(C)C)ccc2O1 was activity change (Venus) -81.35%.
Result for C[C@H](CO)N1C[C@H](C)[C@H](CN(C)S(=O)(=O)c2ccc(Cl)cc2)Oc2ccc(NC(=O)Nc3ccccc3)cc2CC1=O was activity change (Venus) -39.23%.
Result for COc1ccccc1NC(=O)N1CCCCN2[C@@H](CO)[C@@H](c3ccc(-c4ccc(C)cc4)cc3)[C@@H]2C1 was activity change (Venus) -78.44%.